PubChem BioAssay AID1224830 – NIAID, 2016
Assay: 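Genes whose knock-down alters the TNF-alpha reporter response to LPS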 (primary screen). Cells: human THP-1 monocytic leukaemia cells, TNF dual-luciferase reporter clone, PMA-differentiated to macrophage-like cells. Reagent: siRNA pool against human genes, 50 nM. Timing: LPS for 4 h, given about 3 days after siRNA transfection. Conditions: bacterial LPS (TLR4 ligand), 10 ng/ml. Read-out: 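TNF firefly reporter luminescence divided by renilla, normalised to the plate median, then turned into a robust z-score for each replicate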. Direction: TNF reporter robust z-score: higher = stronger TNF reporter response to LPS. Rule for the call: 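Each well counts as active if its z-score is over 2.8 or under -1.5; controls are left without a call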.
The whole screen tested about 18,000 reagents; shown is a random part of them. Of all reagents, about 2,900 (16%) were called active. 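Calls are made per well; low scores hint the gene aids the LPS response, high scores that it dampens it.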 Repeated entries: four replicate wells of each siRNA pool.

gene | TNF reporter robust z-score | call
SGO1 | -0.13 | inactive
SGO1 | 1.78 | inactive
SGO1 | -0.33 | inactive
SGO1 | 0.33 | inactive
IL1RN | -0.97 | inactive
IL1RN | -0.39 | inactive
IL1RN | -1.13 | inactive
IL1RN | -1.15 | inactive
CCNG2 | -0.95 | inactive
CCNG2 | -0.39 | inactive
CCNG2 | -0.06 | inactive
CCNG2 | -1.12 | inactive
LINC02145 | 1.44 | inactive
LINC02145 | 0.34 | inactive
LINC02145 | 1.43 | inactive
LINC02145 | -0.05 | inactive
DDX42 | -0.48 | inactive
DDX42 | -0.24 | inactive
DDX42 | 0.14 | inactive
DDX42 | 0.39 | inactive
TIMP2 | -0.87 | inactive
TIMP2 | -1.12 | inactive
TIMP2 | -0.69 | inactive
TIMP2 | -0.22 | inactive
H1-2 | -1.13 | inactive
H1-2 | -0.27 | inactive
H1-2 | -0.44 | inactive
H1-2 | 0.06 | inactive
UBE4A | -0.85 | inactive
UBE4A | -0.5 | inactive
UBE4A | -0.31 | inactive
UBE4A | 0.77 | inactive
UBAC1 | 0.29 | inactive
UBAC1 | -0.98 | inactive
UBAC1 | 0 | inactive
UBAC1 | 0.06 | inactive
IL17F | 0.36 | inactive
IL17F | 0.89 | inactive
IL17F | -1.02 | inactive
IL17F | 0.68 | inactive
NDST2 | -0.4 | inactive
NDST2 | -0.12 | inactive
NDST2 | 0.12 | inactive
NDST2 | -0.2 | inactive
ADAMTS12 | -0.61 | inactive
ADAMTS12 | -0.27 | inactive
ADAMTS12 | 1.35 | inactive
ADAMTS12 | 0.65 | inactive
MAS1L | 0.18 | inactive
MAS1L | 2.17 | inactive
MAS1L | 1.06 | inactive
MAS1L | -0.05 | inactive
GRAMD1C | 0.11 | inactive
GRAMD1C | 1.32 | inactive
GRAMD1C | -0.28 | inactive
GRAMD1C | 0.52 | inactive
GNAT2 | -1.45 | inactive
GNAT2 | -1.41 | inactive
GNAT2 | -1.63 | active
GNAT2 | -2 | active
MZB1 | -0.88 | inactive
MZB1 | -1.26 | inactive
MZB1 | -0.57 | inactive
MZB1 | -1.07 | inactive
CALHM2 | 0.97 | inactive
CALHM2 | 0.09 | inactive
CALHM2 | -0.43 | inactive
CALHM2 | -0.4 | inactive
OR2C1 | -0.01 | inactive
OR2C1 | 6.92 | active
OR2C1 | -0.31 | inactive
OR2C1 | 1.75 | inactive

Targets above whose target name begins with C or c:
gene | TNF reporter robust z-score | call
CCNG2 | -0.95 | inactive
CCNG2 | -0.39 | inactive
CCNG2 | -0.06 | inactive
CCNG2 | -1.12 | inactive
CALHM2 | 0.97 | inactive
CALHM2 | 0.09 | inactive
CALHM2 | -0.43 | inactive
CALHM2 | -0.4 | inactive

The listing continues.
gene | TNF reporter robust z-score | call
PRM3 | -0.72 | inactive
PRM3 | -0.94 | inactive
PRM3 | -1.34 | inactive
PRM3 | -0.69 | inactive
CYB561A3 | 0.09 | inactive
CYB561A3 | 0.46 | inactive
CYB561A3 | -0.15 | inactive
CYB561A3 | 0.08 | inactive
NKAPL | 0.05 | inactive
NKAPL | 2.56 | inactive
NKAPL | -0.2 | inactive
NKAPL | 0.31 | inactive
MAP3K9 | -0.39 | inactive
MAP3K9 | -1.3 | inactive
MAP3K9 | -0.96 | inactive
MAP3K9 | -0.17 | inactive
OR13G1 | 0.31 | inactive
OR13G1 | 0.1 | inactive
OR13G1 | -0.12 | inactive
OR13G1 | 0.67 | inactive
GAPDHS | 0.06 | inactive
GAPDHS | -0.16 | inactive
GAPDHS | -0.15 | inactive
GAPDHS | 0.23 | inactive
TNFAIP8 | 0.56 | inactive
TNFAIP8 | 1.57 | inactive
TNFAIP8 | 1.09 | inactive
TNFAIP8 | 1.68 | inactive
LRTM2 | 0.54 | inactive
LRTM2 | 1.69 | inactive
LRTM2 | 0.21 | inactive
LRTM2 | 0.29 | inactive
SAFB | -1.48 | inactive
SAFB | -0.51 | inactive
SAFB | -1.02 | inactive
SAFB | -1.76 | active
PPP2CB | -1.22 | inactive
PPP2CB | -1.41 | inactive
PPP2CB | -1.42 | inactive
PPP2CB | -0.49 | inactive
